Publication PMC9675754, “Structure of the human heparan sulfate polymerase complex EXT1-EXT2” (Nature Communications, 2022)
Numbering of substitutions follows the chain as printed. In names and notes the source's numbering stands. Results are given in words; binding and its absence hold for the method and conditions named. Some results given as binding are weak or reduced against the parent protein; the word gives no strength. Each block holds one binder with its values, some of them ahead of it.

Columns and labels:
[1] = molecular target: human EXT1 (exostosin-1), N-terminally truncated, aa29-aa746 (human) (UniProt Q16394); test: cryo-EM structure; 0.4 mg/mL purified, co-expressed EXT1-EXT2 with 1 mM UDP-GlcNAc, 1 mM UDP-GlcA and 1 mM MnCl2; single-particle analysis, 2.8 Å; both purified
[2] = molecular target: T1, human EXT2 aa47-aa718 R266A (human) (UniProt Q93063); test: co-purification of co-expressed proteins (immobilised metal affinity chromatography); both chains co-expressed and secreted from FreeStyle 293-F cells, both with C-terminal 8x His; two HisTrap HP steps with TEV cleavage between; 50 mM Tris pH 7.8, 150 mM NaCl, 4 °C
T1 sequence: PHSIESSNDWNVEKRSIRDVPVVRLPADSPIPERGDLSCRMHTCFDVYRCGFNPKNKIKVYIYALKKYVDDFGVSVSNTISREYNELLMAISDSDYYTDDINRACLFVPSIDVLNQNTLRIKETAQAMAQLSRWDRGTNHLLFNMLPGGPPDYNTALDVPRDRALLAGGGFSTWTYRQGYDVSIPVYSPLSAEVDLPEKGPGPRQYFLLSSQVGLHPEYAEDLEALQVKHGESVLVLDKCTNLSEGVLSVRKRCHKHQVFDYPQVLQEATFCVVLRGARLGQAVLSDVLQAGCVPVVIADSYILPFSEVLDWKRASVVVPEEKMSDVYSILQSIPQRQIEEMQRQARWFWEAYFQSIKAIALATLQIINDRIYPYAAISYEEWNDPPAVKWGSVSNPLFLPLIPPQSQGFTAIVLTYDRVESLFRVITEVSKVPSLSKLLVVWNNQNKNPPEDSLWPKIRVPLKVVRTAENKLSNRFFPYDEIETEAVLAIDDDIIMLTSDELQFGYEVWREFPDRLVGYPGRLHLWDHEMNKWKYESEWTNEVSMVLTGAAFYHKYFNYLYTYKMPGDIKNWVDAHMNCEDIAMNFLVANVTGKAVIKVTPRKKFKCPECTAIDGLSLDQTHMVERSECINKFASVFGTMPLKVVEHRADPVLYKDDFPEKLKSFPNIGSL

[3] = molecular target: T2, human EXT2 aa47-aa718 D538N/D540N (human) (UniProt Q93063); test: as above
T2 sequence: T1 sequence with A220R, D492N, D494N

[4] = molecular target: T3, human EXT2 (exostosin-2), N-terminally truncated, aa47-aa718 (human) (UniProt Q93063); test: as above
T3 sequence (chain, N-linked glycan at Asn637): T1 sequence with A220R

[5] = molecular target: T3, human EXT2 (exostosin-2), N-terminally truncated, aa47-aa718 (human); test: cryo-EM structure; 0.4 mg/mL purified, co-expressed EXT1-EXT2 with 1 mM UDP-GlcNAc, 1 mM UDP-GlcA and 1 mM MnCl2; single-particle analysis, 2.8 Å; both purified

- binding [1]: no binding
- binding [2]: binds
- binding [3]: binds
B1: human EXT1 (exostosin-1), N-terminally truncated, aa29-aa746 (enzyme, UniProt Q16394 29-746, looked up)
chain: RASRSHSRREEHSGRNGLHHPSPDHFWPRFPDALRPFVPWDQLENEDSSVHISPRQKRDANSSIYKGKKCRMESCFDFTLCKKNGFKVYVYPQQKGEKIAESYQNILAAIEGSRFYTSDPSQACLFVLSLDTLDRDQLSPQYVHNLRSKVQSLHLWNNGRNHLIFNLYSGTWPDYTEDVGFDIGQAMLAKASISTENFRPNFDVSIPLFSKDHPRTGGERGFLKFNTIPPLRKYMLVFKGKRYLTGIGSDTRNALYHVHNGEDVVLLTTCKHGKDWQKHKDSRCDRDNTEYEKYDYREMLHNATFCLVPRGRRLGSFRFLEALQAACVPVMLSNGWELPFSEVINWNQAAVIGDERLLLQIPSTIRSIHQDKILALRQQTQFLWEAYFSSVEKIVLTTLEIIQDRIFKHISRNSLIWNKHPGGLFVLPQYSSYLGDFPYYYANLGLKPPSKFTAVIHAVTPLVSQSQPVLKLLVAAAKSQYCAQIIVLWNCDKPLPAKHRWPATAVPVVVIEGESKVMSSRFLPYDNIITDAVLSLDEDTVLSTTEVDFAFTVWQSFPERIVGYPARSHFWDNSKERWGYTSKWTNDYSMVLTGAAIYHKYYHYLYSHYLPASLKNMVDQLANCEDILMNFLVSAVTKLPPIKVTQKKQYKETMMGQTSRASRWADPDHFAQRQSCMNTFASWFGYMPLIHSQMRLDPVLFKDQVSILRKKYRDIERL
modifications: N-linked glycan at Asn330
notes: exostosin-1 (EXT1), human, residues 29-746, lacking the N-terminal transmembrane helix; Only obtained by co-expression with EXT2; Model built for aa89-aa728 with some loops missing; also called EXT1 WT; not shown: secreted alkaline phosphatase, N-terminal, cleaved; 8x His, C-terminal, kept

- binding [4]: binds
B2: human EXT1 aa29-aa746 R280A (enzyme, UniProt Q16394 29-746)
chain: B1 chain with R252A

- binding [4]: binds
B3: human EXT1 aa29-aa746 D565N/D567N (enzyme, UniProt Q16394 29-746)
chain: B1 chain with D537N, D539N

- binding [4]: binds
B4: human EXT1 aa29-aa746 R346A (enzyme, UniProt Q16394 29-746)
chain: B1 chain with R318A

- binding [5]: no binding
B5: human EXT2 (exostosin-2), N-terminally truncated, aa47-aa718 (enzyme, UniProt Q93063 47-718, looked up)
chain: T1 sequence with A220R
modifications: N-linked glycan at Asn637
notes: exostosin-2 (EXT2), human, residues 47-718, lacking the N-terminal transmembrane helix; Only obtained by co-expression with EXT1; Model built for aa78-aa702 with some loops missing; also called EXT2 WT; not shown: secreted alkaline phosphatase, N-terminal, cleaved; 8x His, C-terminal, kept
